According to patent publication US9744244B2, “Amphipathic peptide” (The Queen's University of Belfast, priority 2012, dated 2017):
Part of at least one peptide drawing is inferred or uncertain, most often the ends. Some of these results come from one statement about several compounds together. Where no end group is shown, it is not given here.

Assays:
ZR-75-1 cells = experiment: Transfection of ZR-75-1 cells, GFP expression by flow cytometry; format: cell-based; conditions: N:P10
Method: In order to test the RALA in vitro, small scale transfections were performed carried out. 5×10^4 cells were seeded onto each well of a 96 well plate and the cells incubated under with complete medium standard conditions for 48 hours. The medium was subsequently removed from the plates and 100 μl of transfection medium (Optimem Invitrogen, UK) was added to each well. Cells were incubated for 2 hours at 37° C. and 5% CO2 standard conditions. In the meanwhile complexes were made up using 1 μg of plasmid DNA with the RALA vector and added to the cells when the two hours had passed. 100 μl of the each N:P ratio were added to each well of the cells. Cells were then incubated for a further 4 hours under standard conditions and the medium with RPMI-1640 supplemented with +10% FCS. (FIG. 4, 31 (+Chloroquine), 32 (+Bafilomycin), 33 (+KALA NPs), 34 (+Lipofectamine), 35).
ZR-75-1 & PC-3 cells that were transfected with RALA/pEGFP-N1 complexes were trypsinised and washed twice with 2% formaldehyde in phosphate buffered saline. The expression of green fluorescent protein was measured by flow cytometry using FACS calibur system (BD Bioscience, UK). The data was analysed using the Flo-Jo software program and fluorescent intensity is reported at 4% gating. (FIG. 7b, 11, 31, 32, 33, 34, 35, 57 (+RAT/pEGFP-N1)).

[1] = Nanoparticle size and charge analysis (DLS, Laser Doppler Velocimetry, Malvern Zetasizer); format: physicochemical; conditions: peptide/DNA nanoparticles, N:P10
Method: In order to obtain particle size and charge distributions the mean hydrodynamic particle size measurements RALA complexes were performed using Dynamic Light Scattering (DLS). Dynamic Light Scattering is based upon the principle that when particles are illuminated with a laser, due to Brownian motion there will be scattering of the light. The intensity of the scattered light fluctuates as a result of this Brownian motion caused by bombardment of the particles by solvent molecules. A correlation curve reflecting the decay rate is generated based on fluctuations of the scattered light where a slower correlation decay rate represents a slower moving particle. Based on the Stokes-Einstein equation larger particles move more slowly and, thus, the correlation function can be used to determine the size distribution of the particles. dynamic light scattering (DLS) was used.
Surface charge measurements of the RALA nanoparticles were determined by Laser Doppler Velocimetry. The zeta potential of the particles was measured using disposable foltable zeta cuvettes. Zeta cuvettes for the measurement of zeta potential were first washed with 70% ethanol, followed by two rinses with double distilled H2O prior to loading the sample. Enough diluted sample used for size measurement was used for determination of zeta potential.
The nanoparticles were made up at an appropriate range of N:P ratios with at least using 2 μg of DNA in each sample. Nanoparticles were analysed using either and analysis was completed on either the Zetasizer-HS3000 (Malvern Instruments) or the Zetasizer-Nano instrument with DTS software (Malvern Instruments, UK). Zetasizer-Nano (Malvern Instruments) (FIGS. 3, 9, 17-21, 41, 48 & 55).

[2] = test system: MDA-MB-231-luc2 breast cancer cells; experiment: Intracardiac metastases model, systemic RALA/iNOS nanoparticles; format: in vivo, Balb/c SCID mice; conditions: tail vein, twice weekly, five treatments, 10 μg pDNA at N:P 10 or corresponding RALA
PC3 cell line = experiment: Fluorescent siRNA transfection; format: cell-based
PC-3 cells = experiment: Targeting inhibition study: transfection with free TMTP-1 as competitive inhibitor; format: cell-based; conditions: untargeted peptide
Gel retardation assay = format: physicochemical
[3] = test system: MDA-MB-231 breast cancer cells; experiment: Gold nanoparticle experiment (Cytoviva hyperspectral imaging); format: cell-based; conditions: 5 nm phosphorylated gold nanoparticles, 24 hours
[4] = test system: PC-3 prostate cancer cell xenograft; experiment: PC-3 xenograft model, intratumoural RALA/alendronate; format: in vivo, BALB-C SCID mice; conditions: thrice weekly

## WEARLARALARALARHLARALARALRACEA [RALA]
ZR-75-1 cells
  Transfection Efficiency in ZR-75-1 Cells: 30%
[1]
  Charge (mV): 25 mV
[1]; listed as Original RALA
  Best Size (nm): 70 nm
[1]; listed as Peptide 1
  Best Size (nm): less than 100 nm
[2]
  median survival post inoculation: 30 days
PC3 cell line
  time to peak in transfection: immediately after transfection
PC-3 cells
  effect of TMTP-1 inhibitor on transfection: no significant effect
Gel retardation assay
  N:P ratio at which DNA is fully condensed: above 4
[3]
  internalisation and endosome disruption of delivered gold nanoparticles: increased internalisation and disruption of the endosomes
[4]
  effect on tumour growth vs untreated control: no significant effect on tumour growth
